Test [1] deals with T1, BD-VdZFP2 (Verticillium dahliae) (UniProt G2XEQ9).
T1 sequence: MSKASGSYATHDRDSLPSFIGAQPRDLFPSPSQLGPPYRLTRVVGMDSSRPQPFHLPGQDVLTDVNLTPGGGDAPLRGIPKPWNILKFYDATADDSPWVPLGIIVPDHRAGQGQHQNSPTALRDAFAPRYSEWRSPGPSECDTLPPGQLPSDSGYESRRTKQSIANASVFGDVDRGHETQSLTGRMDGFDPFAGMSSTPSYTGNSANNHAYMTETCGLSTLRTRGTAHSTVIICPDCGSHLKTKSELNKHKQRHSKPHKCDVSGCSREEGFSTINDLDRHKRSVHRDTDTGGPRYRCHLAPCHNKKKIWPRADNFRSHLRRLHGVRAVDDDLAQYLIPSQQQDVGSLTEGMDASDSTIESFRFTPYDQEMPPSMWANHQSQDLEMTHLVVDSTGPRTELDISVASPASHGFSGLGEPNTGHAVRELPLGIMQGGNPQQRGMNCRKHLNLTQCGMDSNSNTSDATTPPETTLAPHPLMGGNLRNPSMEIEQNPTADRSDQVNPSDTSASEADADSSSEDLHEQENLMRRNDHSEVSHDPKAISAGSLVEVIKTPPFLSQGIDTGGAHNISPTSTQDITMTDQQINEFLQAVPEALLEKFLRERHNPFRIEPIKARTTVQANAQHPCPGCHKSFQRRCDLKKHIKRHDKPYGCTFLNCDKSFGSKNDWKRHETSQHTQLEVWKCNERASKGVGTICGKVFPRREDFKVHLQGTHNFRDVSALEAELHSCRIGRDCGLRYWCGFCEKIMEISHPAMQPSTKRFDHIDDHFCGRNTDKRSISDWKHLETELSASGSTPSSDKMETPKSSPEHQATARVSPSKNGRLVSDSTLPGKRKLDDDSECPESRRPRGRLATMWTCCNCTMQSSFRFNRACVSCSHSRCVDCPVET
Briefly: two-hybrid; one-to-one Y2H in yeast Y2Hgold; prey in pGADT7, bait in pGBKT7; growth and blue colour on QDO (SD lacking Leu, Trp, His, Ade) with 3AT, 0.1 ug/mL AbA and 20 ug/mL X-a-Gal, 5 days.

Test [2] concerns the target T2, VdZFP2-YFP^N (Verticillium dahliae) (UniProt G2XEQ9).
T2 sequence: T1 sequence
Briefly: split reporter; BiFC with YFP^N (pHZ65) and YFP^C (pHZ68) fusions co-transformed into protoplasts of V. dahliae WT strain AT13; YFP signal by fluorescence microscopy, cell wall stained with CFW.

Results are given in words; binding and its absence hold for the method and conditions named. For some assays here: Binding seen in cells or lysates may run through a third protein. Some entries that bind do so weakly or less than the wild type. Where a sequence is shown, tags or fusion partners need not be part of it.

B1: AD-VdZFP1 (protein, UniProt G2XER1 1-585)
chain: MTYHIFHLDRRLTQGPFYPEHQDYGQNQASHTEDALNFDMPPPIDPNLEQGLTAHLGTVSWPGVHTHQLKQYMVGPSTSLFALGQFQANYAYSQHDVNPLPPVSQGRHGSPFSQHHSSSCSDSLSPPTEIDVLPSTPPDMSATSPFSQAIKFQPSWDAQQSRLYTLRGIVPTQENPYVSLLEVNPSQDIFENEKAPEYDGSMALSFSSAGSQSEMEVQVKDEIFVAHSHSQPTYPDPDYEERDQSELEAEEMIMKHEDEDKEWTPHPSRKRTRSDANKAQYVATRPARKRSKVHALPRAVPSKSSHEAPHSTKHVLSCEACAQGPFRDEAALQKHMKGKHIRPFVCIFNFAGCSSSFPSKNEWKRHVVTQHLALSFWHCKQDACESCTNPASASQQGSPATDTPSPLPRGAIFNRKDLYTQHVRRMHVPPPIAKALRLRKPTPEWDDRLREMQTEAERRRCELPTHMQCPASGCDMVFSGANAWDERMEHVAKHLEKASEGREPMLSFGGDGDPTLTNWAASPGVGVVRKTDTGEWELMHPLRGQPASAGGIAKRGAKGHSSSSPQAARYEEESAEDVDADGEED
For B1, the binding entry in test [1] is “binds”.

B2: VdZFP1-YFP^C (protein, UniProt G2XER1 1-585)
chain: B1 chain
Turning to B2, in test [2], the binding entry is listed as “binds”.

The record behind these values is paper PMC10617112.
